From article PMC8196014

Target: T1, GST-LATS1-Kinase region (UniProt O95835)
T1 sequence: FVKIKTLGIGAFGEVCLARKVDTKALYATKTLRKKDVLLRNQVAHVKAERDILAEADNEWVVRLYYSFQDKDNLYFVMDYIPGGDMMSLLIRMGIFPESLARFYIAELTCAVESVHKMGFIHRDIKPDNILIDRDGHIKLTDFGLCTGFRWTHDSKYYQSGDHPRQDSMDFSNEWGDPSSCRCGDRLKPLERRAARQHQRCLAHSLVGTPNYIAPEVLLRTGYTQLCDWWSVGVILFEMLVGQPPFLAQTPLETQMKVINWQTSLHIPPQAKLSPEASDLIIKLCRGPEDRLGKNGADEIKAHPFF
Experiment: pull-down; GST pull-down: lysates of HEK293 cells transfected with truncates of GFP-Kindlin-2 incubated in vitro with GST, GST-YAP or GST-LATS1-Kinase region; anti-GFP blot; only the target purified

GFP-Kindlin-2 middle region (truncate) (domain or fragment)
binding: binds

GFP-Kindlin-2 N-terminal region (truncate) (domain or fragment)
binding: binds

These are yes or no findings as the source states them, for the method shown. Binding seen in cells or lysates may run through a third protein. A result given as binding can be weak or reduced; the word gives no strength. Tags and fused reporters may be left off the sequences shown.
